# Test results from the supplement of paper PMC6411743.
# ± gives the standard deviation of the averaged measurements. The entries are a selection whose mix differs from that of the whole data set.
# Legend:
# Experiment in all cases: NP40-soluble protein abundance relative to vehicle (solubility fold change) (ratio); higher = more soluble protein in presence of AMP-PNP
# GGT7 = target: T1, GGT7 (UniProt Q9UJ14)
# T1 sequence (whole entry): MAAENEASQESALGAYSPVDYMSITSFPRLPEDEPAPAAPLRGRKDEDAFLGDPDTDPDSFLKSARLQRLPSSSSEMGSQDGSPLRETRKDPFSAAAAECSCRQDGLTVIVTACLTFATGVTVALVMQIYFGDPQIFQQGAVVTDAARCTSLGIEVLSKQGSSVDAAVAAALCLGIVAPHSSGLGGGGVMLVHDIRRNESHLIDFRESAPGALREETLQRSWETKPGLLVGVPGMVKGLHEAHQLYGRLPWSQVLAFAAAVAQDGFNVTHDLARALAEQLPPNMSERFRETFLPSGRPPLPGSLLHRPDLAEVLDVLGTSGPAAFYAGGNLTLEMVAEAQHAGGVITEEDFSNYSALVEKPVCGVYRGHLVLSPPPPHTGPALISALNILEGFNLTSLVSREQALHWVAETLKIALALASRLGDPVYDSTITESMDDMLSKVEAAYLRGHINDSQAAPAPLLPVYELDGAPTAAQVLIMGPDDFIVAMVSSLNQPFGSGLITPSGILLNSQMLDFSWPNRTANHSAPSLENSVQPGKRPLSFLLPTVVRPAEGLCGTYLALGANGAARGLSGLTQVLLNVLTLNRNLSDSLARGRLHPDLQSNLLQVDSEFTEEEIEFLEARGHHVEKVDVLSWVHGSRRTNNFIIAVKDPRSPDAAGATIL
# Method in brief: (§1)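 Across three independent experiments, values are fold changes against the detergent-processed vehicle for each replicate, based on vsn-normalised intensities. The samples were Jurkat crude lysate treated with eight concentrations (0.1 to 10 mM) for 10 min at room temperature and then 3 min at 37 °C. Lysate was solubilised with 0.8% NP40 and benzonase, ultracentrifuged, and the supernatant analysed by TMT-labelled LC-MS/MS.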
# PCYOX1 = target: T2, PCYOX1 (UniProt Q9UHG3)
# T2 sequence (whole entry): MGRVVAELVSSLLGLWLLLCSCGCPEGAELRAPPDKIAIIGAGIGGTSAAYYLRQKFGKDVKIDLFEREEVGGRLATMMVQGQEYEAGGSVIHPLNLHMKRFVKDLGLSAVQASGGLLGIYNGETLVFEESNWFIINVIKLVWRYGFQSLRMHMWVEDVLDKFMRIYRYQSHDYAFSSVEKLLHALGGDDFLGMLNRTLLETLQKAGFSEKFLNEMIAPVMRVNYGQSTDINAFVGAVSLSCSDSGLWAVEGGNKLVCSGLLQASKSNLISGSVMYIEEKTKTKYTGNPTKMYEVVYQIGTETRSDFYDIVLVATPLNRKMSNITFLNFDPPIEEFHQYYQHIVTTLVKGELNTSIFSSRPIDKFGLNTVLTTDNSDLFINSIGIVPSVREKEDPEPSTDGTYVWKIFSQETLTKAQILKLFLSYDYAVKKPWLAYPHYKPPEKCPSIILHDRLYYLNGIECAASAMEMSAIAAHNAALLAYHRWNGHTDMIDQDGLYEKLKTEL
# Method in brief: as §1
# PLCL2 = target: T3, PLCL2 (UniProt Q9UPR0)
# T3 sequence (whole entry): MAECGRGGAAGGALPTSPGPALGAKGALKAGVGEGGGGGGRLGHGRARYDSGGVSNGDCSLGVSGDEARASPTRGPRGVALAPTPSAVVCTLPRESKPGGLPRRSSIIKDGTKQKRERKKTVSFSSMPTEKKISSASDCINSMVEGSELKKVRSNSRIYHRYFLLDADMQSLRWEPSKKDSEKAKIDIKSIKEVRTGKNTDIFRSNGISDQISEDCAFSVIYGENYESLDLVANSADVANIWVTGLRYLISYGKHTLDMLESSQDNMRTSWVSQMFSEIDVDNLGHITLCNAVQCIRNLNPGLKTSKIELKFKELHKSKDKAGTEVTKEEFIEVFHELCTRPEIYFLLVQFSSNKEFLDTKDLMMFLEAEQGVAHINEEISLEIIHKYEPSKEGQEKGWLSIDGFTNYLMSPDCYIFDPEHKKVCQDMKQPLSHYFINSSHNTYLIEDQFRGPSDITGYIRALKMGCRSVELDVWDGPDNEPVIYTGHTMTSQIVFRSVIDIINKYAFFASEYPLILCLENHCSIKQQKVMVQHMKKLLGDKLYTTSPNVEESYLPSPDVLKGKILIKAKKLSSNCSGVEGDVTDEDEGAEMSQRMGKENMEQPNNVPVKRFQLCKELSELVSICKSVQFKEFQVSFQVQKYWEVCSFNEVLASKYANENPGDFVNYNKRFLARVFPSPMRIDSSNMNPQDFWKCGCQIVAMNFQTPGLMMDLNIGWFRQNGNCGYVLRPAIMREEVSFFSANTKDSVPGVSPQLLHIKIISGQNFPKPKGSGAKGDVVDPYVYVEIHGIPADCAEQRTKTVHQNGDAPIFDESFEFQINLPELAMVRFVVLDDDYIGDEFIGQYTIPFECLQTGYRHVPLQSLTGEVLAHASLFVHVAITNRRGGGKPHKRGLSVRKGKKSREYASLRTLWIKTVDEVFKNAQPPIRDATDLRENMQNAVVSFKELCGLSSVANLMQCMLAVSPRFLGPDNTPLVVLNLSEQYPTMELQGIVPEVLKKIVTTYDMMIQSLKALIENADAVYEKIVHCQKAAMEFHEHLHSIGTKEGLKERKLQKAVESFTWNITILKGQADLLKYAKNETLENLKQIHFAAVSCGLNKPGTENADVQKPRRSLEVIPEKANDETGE
# Method in brief: as §1
# POLG2 = target: T4, POLG2 (UniProt Q9UHN1)
# T4 sequence (whole entry): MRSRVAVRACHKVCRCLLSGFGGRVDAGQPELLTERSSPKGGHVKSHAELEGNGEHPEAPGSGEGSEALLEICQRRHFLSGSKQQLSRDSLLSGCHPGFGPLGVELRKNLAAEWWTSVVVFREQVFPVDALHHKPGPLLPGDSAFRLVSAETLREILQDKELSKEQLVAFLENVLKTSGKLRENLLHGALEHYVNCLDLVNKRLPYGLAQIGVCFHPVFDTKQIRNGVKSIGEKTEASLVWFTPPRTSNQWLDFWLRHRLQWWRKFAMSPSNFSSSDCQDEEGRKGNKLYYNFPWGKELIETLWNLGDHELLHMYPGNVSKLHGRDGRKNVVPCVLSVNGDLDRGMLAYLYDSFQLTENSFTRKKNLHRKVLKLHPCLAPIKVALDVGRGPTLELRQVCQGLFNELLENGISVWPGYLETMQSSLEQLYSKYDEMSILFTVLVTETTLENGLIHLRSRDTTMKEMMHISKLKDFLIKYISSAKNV
# Method in brief: as §1
# RRP15 = target: T5, RRP15 (UniProt Q9Y3B9)
# T5 sequence (whole entry): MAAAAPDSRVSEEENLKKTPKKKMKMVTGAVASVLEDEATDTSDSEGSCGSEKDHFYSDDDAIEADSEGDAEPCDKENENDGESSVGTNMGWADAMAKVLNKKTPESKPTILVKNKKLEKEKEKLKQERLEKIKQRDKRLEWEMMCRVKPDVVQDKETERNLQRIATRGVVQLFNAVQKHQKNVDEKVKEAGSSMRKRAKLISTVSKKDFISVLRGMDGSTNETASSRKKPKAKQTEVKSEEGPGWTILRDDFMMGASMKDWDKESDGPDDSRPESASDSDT
# Method in brief: as §1
# SERGEF = target: T6, SERGEF (UniProt Q9UGK8)
# T6 sequence (whole entry): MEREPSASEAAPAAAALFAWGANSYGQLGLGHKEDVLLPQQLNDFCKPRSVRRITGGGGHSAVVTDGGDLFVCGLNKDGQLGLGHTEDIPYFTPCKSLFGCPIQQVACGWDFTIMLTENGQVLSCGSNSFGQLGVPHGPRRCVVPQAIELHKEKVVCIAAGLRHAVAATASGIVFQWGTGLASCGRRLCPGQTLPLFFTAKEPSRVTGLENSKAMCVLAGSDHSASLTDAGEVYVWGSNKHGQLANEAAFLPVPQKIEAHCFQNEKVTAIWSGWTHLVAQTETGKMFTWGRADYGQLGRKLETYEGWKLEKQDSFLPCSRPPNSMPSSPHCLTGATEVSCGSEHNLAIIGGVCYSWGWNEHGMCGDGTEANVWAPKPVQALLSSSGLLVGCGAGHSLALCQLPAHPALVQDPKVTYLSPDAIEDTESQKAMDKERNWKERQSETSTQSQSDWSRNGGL
# Method in brief: as §1
structure (smiles),measurement,setting,value
Nc1ncnc2c1ncn2[C@@H]1O[C@H](COP(=O)(O)OP(=O)(O)NP(=O)(O)O)[C@@H](O)[C@H]1O [adenylyl imidodiphosphate],NP40-soluble protein abundance,GGT7; concentration: 8mM,1.01 ± 0.02
same,NP40-soluble protein abundance,GGT7; concentration: 10mM,1.01 ± 0.046
same,NP40-soluble protein abundance,PCYOX1; concentration: 1mM,0.972 ± 0.02
same,NP40-soluble protein abundance,PCYOX1; concentration: 2mM,0.92 ± 0.051
same,NP40-soluble protein abundance,PCYOX1; concentration: 4mM,0.978 ± 0.032
same,NP40-soluble protein abundance,PCYOX1; concentration: 6mM,1.01 ± 0.039
same,NP40-soluble protein abundance,PCYOX1; concentration: 8mM,1.03 ± 0.025
same,NP40-soluble protein abundance,PCYOX1; concentration: 10mM,1.01 ± 0.025
same,NP40-soluble protein abundance,PLCL2; concentration: 1mM,1.05 ± 0.017
same,NP40-soluble protein abundance,PLCL2; concentration: 2mM,1.04 ± 0.027
same,NP40-soluble protein abundance,PLCL2; concentration: 4mM,1.02 ± 0.041
same,NP40-soluble protein abundance,PLCL2; concentration: 6mM,1.01 ± 0.034
same,NP40-soluble protein abundance,PLCL2; concentration: 8mM,1.01 ± 0.025
same,NP40-soluble protein abundance,PLCL2; concentration: 10mM,1.01 ± 0.019
same,NP40-soluble protein abundance,POLG2; concentration: 1mM,0.994 ± 0.073
same,NP40-soluble protein abundance,POLG2; concentration: 2mM,1.03 ± 0.056
same,NP40-soluble protein abundance,POLG2; concentration: 4mM,0.996 ± 0.072
same,NP40-soluble protein abundance,POLG2; concentration: 6mM,1.06 ± 0.051
same,NP40-soluble protein abundance,POLG2; concentration: 8mM,1.07 ± 0.043
same,NP40-soluble protein abundance,POLG2; concentration: 10mM,1.05 ± 0.021
same,NP40-soluble protein abundance,RRP15; concentration: 1mM,0.982 ± 0.022
same,NP40-soluble protein abundance,RRP15; concentration: 2mM,1.01 ± 0.04
same,NP40-soluble protein abundance,RRP15; concentration: 4mM,0.919 ± 0.04
same,NP40-soluble protein abundance,RRP15; concentration: 6mM,0.921 ± 0.027
same,NP40-soluble protein abundance,RRP15; concentration: 8mM,0.901 ± 0.04
same,NP40-soluble protein abundance,RRP15; concentration: 10mM,0.903 ± 0.026
same,NP40-soluble protein abundance,SERGEF; concentration: 1mM,0.974 ± 0.05
same,NP40-soluble protein abundance,SERGEF; concentration: 2mM,0.96 ± 0.028
same,NP40-soluble protein abundance,SERGEF; concentration: 4mM,0.973 ± 0.048

# Exported as tab-separated lines: part of the list above
structure (smiles)	measurement	setting	value
Nc1ncnc2c1ncn2[C@@H]1O[C@H](COP(=O)(O)OP(=O)(O)NP(=O)(O)O)[C@@H](O)[C@H]1O [adenylyl imidodiphosphate]	NP40-soluble protein abundance	PCYOX1; concentration: 2mM	0.92 ± 0.051
same	NP40-soluble protein abundance	RRP15; concentration: 6mM	0.921 ± 0.027
